Measurements reported in paper PMC4762778.
These are yes or no findings as the source states them, for the method shown. In cells and extracts the contact can be indirect. Some entries that bind do so weakly or less than the wild type. Where a sequence is shown, tags or fusion partners need not be part of it.

By UniProt entry, the sequences of proteins in these tests, tags left out.
UniProt P39688: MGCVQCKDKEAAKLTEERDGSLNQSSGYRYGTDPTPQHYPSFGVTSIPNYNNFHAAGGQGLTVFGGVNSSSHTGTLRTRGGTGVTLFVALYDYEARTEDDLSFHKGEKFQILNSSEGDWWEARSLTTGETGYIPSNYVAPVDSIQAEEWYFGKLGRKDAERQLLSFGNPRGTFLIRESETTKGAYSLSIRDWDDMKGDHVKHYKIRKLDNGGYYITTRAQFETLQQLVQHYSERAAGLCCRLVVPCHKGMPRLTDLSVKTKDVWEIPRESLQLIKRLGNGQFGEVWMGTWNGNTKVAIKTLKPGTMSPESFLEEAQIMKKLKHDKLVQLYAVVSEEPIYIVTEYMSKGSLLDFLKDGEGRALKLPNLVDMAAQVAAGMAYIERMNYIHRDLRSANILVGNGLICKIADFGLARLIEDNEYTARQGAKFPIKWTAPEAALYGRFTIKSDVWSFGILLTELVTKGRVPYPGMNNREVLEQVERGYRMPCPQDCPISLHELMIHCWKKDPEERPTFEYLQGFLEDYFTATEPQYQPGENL

Molecular target: T1, recombinant ISRAA protein (rISRAA), N-terminal 6His-tagged, expressed from p-SELECT-zeo in Expi293F cells (mouse) (UniProt B2CXA1)
T1 sequence: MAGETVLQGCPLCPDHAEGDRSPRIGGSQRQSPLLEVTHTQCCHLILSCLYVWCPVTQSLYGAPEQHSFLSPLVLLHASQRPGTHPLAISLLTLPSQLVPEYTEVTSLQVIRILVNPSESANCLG
Assay: pull-down; His-rISRAA immobilised on cobalt resin beads from Expi293F lysate (Pierce His Protein Interaction Pull-Down Kit), washed 5 times; incubated with EL4 cell lysate 2 hours at 4°C; eluted with 300 mM imidazole; western blot with anti-Fyn antibody; beads alone as control; only the target purified

Fyn protein (59 KDa), cellular, from EL4 mouse T-cell line lysate (from UniProt P39688 1-537)
binding: binds
